Data as given in PubChem BioAssay AID1159584 (Peter MacCallum Cancer Centre, 2016).
Test: 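Genes that CDH1-null MCF10A cells selectively depend on to survive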 (primary screen). System: human MCF10A breast epithelial cells, parental and CDH1-null. Reagent: siRNA against human genes. Read-out: 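ATP luminescence (CellTiter-Glo) viability per line relative to mean mock wells over all plates, and the ratio of CDH1-null to parental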. Direction: CDH1-null / parental viability ratio: higher = CDH1-null cells survive relatively better than parental.
In all, the deposit lists about 18,000 reagents; below is a part drawn at random. Further read-outs or replicates are left out here. The record does not give: the amount of reagent, the time to read-out.

no.	target	PubChem SID	CDH1-null / parental viability ratio
1	MCAT	SID135622693	1.02
2	CTDSP2	SID152155783	1.34
3	FREM1	SID135623259	0.82
4	ZNF677	SID135623628	0.84
5	PRKAR1A	SID135621428	0.97
6	SLC22A4	SID152147259	0.82
7	ZNF569	SID134320690	1.2
8	S1PR1	SID152154612	1.3
9	PARP3	SID152152044	0.99
10	TEX30	SID134320550	0.78
11	OR7D2	SID152151797	0.97
12	MAPK14	SID135620690	0.94
13	MYOD1	SID152149295	0.93
14	ANKRD29	SID152153678	1.1
15	MAP3K21	SID135620779	0.95
16	CDH4	SID134309983	1.2
17	NPBWR1	SID152150510	0.9
18	WNK1	SID134330010	1.19
19	WNK1	SID152148140	0.77
20	YWHAG	SID152151328	0.64
21	TAS2R19	SID152153249	0.68
22	ELOVL5	SID152155152	1.02
23	ENY2	SID134322646	1.03
24	MED25	SID135622799	0.94
25	KRTCAP2	SID152151601	0.69
26	KCNIP3	SID135623313	1.05
27	OR5L1	SID152149058	1
28	SOCS2	SID134321533	1.02
29	UGT2B11	SID135623933	1.15
30	BARHL2	SID135625064	0.98
31	PHF5A	SID135622856	0.98
32	TMEM61	SID135623637	0.93
33	INTS15	SID134320348	0.82

Records listed so far whose gene name begins with S or s:
target	PubChem SID	CDH1-null / parental viability ratio
SLC22A4	SID152147259	0.82
S1PR1	SID152154612	1.3
SOCS2	SID134321533	1.02

Next reagents:
no.	target	PubChem SID	CDH1-null / parental viability ratio
34	DDX31	SID135622422	0.82
35	C9orf163	SID135623203	0.93
36	GINM1	SID152153317	1.09
37	CLDN1	SID152152409	1.04
38	RPL19P9	SID135625538	1.53
39	TBC1D3F	SID134318910	1.21
40	TBC1D3F	SID135625562	1.21
41	DEFA6	SID134315963	1.2
42	PCGF3	SID152156093	1.03
43	CYBRD1	SID134321090	0.96
44	CFAP100	SID134322516	1.39
45	FABP5	SID134313568	0.9
46	PDLIM5	SID152150196	1.19
47	GSDMB	SID152155324	0.89
48	PRSS55	SID135624652	1.35
49	GPSM2	SID134310267	0.83
50	DDX11	SID135622208	0.89
51	PFN3	SID152148858	1.28
52	LHX5	SID135622441	0.98
53	TBPL1	SID134321201	0.93
54	OCLN	SID135622110	1.02
55	GABRA3	SID152154128	1.35
56	NPS	SID135625611	1.14
57	CDKL3	SID56478871	1.03
58	SFMBT1	SID135624082	1.05
59	UVSSA	SID135624437	1.02
60	TAOK3	SID152152167	1
61	CHGB	SID135622157	1.01
62	SCRT1	SID152152850	2.19
63	SH3TC1	SID135623242	0.9
64	PIMREG	SID152150850	1
65	HNRNPLL	SID134320344	0.74
66	SLC39A8	SID152154664	0.81
67	VPS45	SID152150687	1.2
68	PTCHD4	SID152148602	0.97
69	PCMT1	SID134314656	1.15
70	BBS9	SID152152906	1.12
71	BORCS5	SID134322076	1.06
72	P2RX2	SID134311701	0.95
73	KCNJ15	SID134311663	1.46
74	SFTPA2	SID152150844	0.66
75	MINDY4	SID152147441	1.18
76	TRIM64	SID152153151	0.92
77	TEKT5	SID134319853	0.8
78	NEK5	SID135624240	0.99
79	TRAP1	SID152156745	0.91
80	GPR87	SID134311047	0.82
81	ARHGEF10L	SID135623276	0.95
82	CIAO1	SID135623854	0.93
83	TREML1	SID134322318	1.35
84	DBF4B	SID134317197	1
85	CLEC5A	SID152147805	0.81
86	MATN3	SID152153473	1.17
87	PDIA4	SID152154828	1
